Results published in PMC11165011.
These are yes or no findings as the source states them, for the method shown. In cells and extracts the contact can be indirect. These calls come from enrichment with a bait or labelling near it, and not all partners need be listed. Sequences can lack the tags named with a protein.

Sequences of proteins named here, by UniProt entry; tags and fusion partners are left off.
UniProt P40763: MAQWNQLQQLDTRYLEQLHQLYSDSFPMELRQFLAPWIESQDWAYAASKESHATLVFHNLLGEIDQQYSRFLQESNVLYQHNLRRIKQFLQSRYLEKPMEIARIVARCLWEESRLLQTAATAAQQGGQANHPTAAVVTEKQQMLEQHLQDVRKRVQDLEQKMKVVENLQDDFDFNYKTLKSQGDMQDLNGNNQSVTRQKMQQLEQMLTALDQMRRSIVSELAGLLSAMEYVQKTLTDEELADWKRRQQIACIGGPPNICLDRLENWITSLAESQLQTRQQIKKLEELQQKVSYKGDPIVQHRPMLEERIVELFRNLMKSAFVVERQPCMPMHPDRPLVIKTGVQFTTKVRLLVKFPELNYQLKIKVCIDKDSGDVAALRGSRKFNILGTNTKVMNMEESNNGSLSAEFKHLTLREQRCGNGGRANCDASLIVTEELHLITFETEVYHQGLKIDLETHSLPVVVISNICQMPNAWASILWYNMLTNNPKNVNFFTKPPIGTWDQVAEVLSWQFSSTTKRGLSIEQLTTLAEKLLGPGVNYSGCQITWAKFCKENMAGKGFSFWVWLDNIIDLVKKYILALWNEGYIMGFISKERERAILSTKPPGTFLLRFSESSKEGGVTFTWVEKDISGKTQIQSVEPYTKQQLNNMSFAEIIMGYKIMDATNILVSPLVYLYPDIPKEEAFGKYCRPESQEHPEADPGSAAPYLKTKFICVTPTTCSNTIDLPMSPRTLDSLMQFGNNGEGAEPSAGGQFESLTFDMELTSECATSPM

Target: T1, HA-tagged PRTN3 (Proteinase 3), full length (human) (UniProt P24158)
T1 sequence: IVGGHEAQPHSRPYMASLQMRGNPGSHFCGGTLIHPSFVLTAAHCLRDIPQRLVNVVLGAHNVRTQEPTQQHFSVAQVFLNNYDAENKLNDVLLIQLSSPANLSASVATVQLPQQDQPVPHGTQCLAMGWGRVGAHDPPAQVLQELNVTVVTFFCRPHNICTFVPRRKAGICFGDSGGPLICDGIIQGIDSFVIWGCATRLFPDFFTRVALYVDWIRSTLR
Assay: affinity purification with mass spectrometry; HEK293T cells transfected with HA-PRTN3; lysate precipitated with anti-HA overnight at 4 °C and protein A/G beads; RPLC/MS (TripleTOF 6600)

binding: binds
Substance: STAT3, endogenous in HEK293T cells (from UniProt P40763 1-770)
